Measurements published in PubChem BioAssay AID1508600 (Functional Genomics Laboratory (NCATS/FGL), 2020).
The campaign covered roughly 53,000 sequences. About 3,700 (7%) were called active.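 Rule for the calls: active = gene knockdowns whose robust z-score for IL-1 alpha signal is at least 2 or at most -2, so actives lie on both sides; inactive = the rest.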 The list shows a part of the results.

Test: Components of the Cytosolic LPS Sensing Pathway: Gene Identification via Genome-wide siRNA Screen;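 note: robust z of the log signal after scaling to non-targeting control siRNA wells of the plate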
Details: RAW264.7 macrophages, IL-1a HTRF, actives lie on both sides, screened at 100 nM (by protocol), cells primed 5 h with Pam3CSK4 first
In short: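 RAW264.7 mouse macrophages reverse-transfected with single siRNAs (100 nM final) for 48h, primed with Pam3CSK4 for 5 hours, then transfected with LipidA for 24 hour. Supernatant IL-1a read by HTRF; values normalized to negative-control median, log-transformed robust z-scores.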

Sequence | z-score
GGAUGUGAAACAUGCUUUUTT against Olfr1030 | inactive: 0.536
GGAGGAUUAGUAAAUUCAATT against Ier2 | inactive: 1.75
GCCAAUAAAGUCGGUGAAATT against H2aj | inactive: -0.244
GGAGAUGUUACACAAAAUCTT against Septin4 | inactive: -1.43
GGUACAACUCUAAGAGAAGTT against Rpl39 | inactive: 0.528
GGAGAGUGACAACAGCUUCTT against 1700037H04Rik | inactive: -1.05
GGGAGGUAAGAAUCUUUAUTT against Mphosph8 | inactive: 1.1
GGGAAAUUCAGUCUCAUUCTT against P2rx2 | inactive: -0.709
GGUGGAGUGUUAUUAUAGGTT against Smim8 | inactive: 0.209
GGACUUUGAGAAGGUCGAUTT against Khk | inactive: 0.239
GGAGGAGCAGAUAGACUCATT against Ncln | inactive: 0.0769
GGAGUAACAACACAACAUUTT against Mab21l1 | inactive: 1.43
CCAUACAAGGGUGACAAUUTT against Olfr822 | inactive: 0.253
GGAAGAUGGCACUGAGAUCTT against Itgae | inactive: 1.05
GGCCACUUUGGCUGAAAUUTT against Tbr1 | inactive: 0.422
GCUGGAUACAUUGUGUUCUTT against Rnf44 | inactive: 0.58
GCACCCUCCACCAUUGUGATT against Sqstm1 | inactive: -1.09
GGGCAACCUUCGUGUCAAGTT against P4htm | inactive: 0.037
GGAACAAGGCUUUUUCCACTT against Olfr481 | inactive: 0.566
GCUUGUUUCUAUGAUUAAGTT against Phf10 | inactive: 0.0674
GCCCUUAGAGAGAAUUUAUTT against Lmo2 | inactive: 0.63
CGAUUGUCAGGAUCCAUUUTT against Vipr1 | inactive: -0.787

Looked up one by one from above, 4 records:
Sequence | z-score
GCCAAUAAAGUCGGUGAAATT against H2aj | inactive: -0.244
CCAUACAAGGGUGACAAUUTT against Olfr822 | inactive: 0.253
GGAAGAUGGCACUGAGAUCTT against Itgae | inactive: 1.05
GGAUGUGAAACAUGCUUUUTT against Olfr1030 | inactive: 0.536

The list continues:

Sequence | z-score
CCAAAGAUGCUAGUUGACCTT against Olfr1135 | inactive: -0.186
GGCAAUUCUGAAGAAACCATT against Ogn | active: -2.23
GGAUGUGGCGCAAUAUAUUTT against Gpt | inactive: 1.01
GGGCACACUGUAAAGUUGGTT against Mid1ip1 | inactive: -0.0466
GGUUGAGCUGAAGAAUGGATT against Htra1 | inactive: 0.332
GGAGACUGGAGCUUCAUCUTT against Lpar2 | inactive: 0.318
GGCUGUCAUACUUUCAGGGTT against Hyal5 | active: 2.51
GGAAAUUCAGAUGCUGAAGTT against Erc1 | inactive: -1.08
GGACAAAAGGCAGCUUAUUTT against Cnot3 | inactive: -1.45
GGGUUUAAAAUCUGUAGAUTT against Edrf1 | inactive: 0.162
GGACAGAGUCUUCAAAACGTT against Fastkd3 | inactive: -1.52
GCCAAGCACUGGACUAUGATT against Cdk5r2 | inactive: 0.345
GCAACAAAAGGCCUAAUCATT against 4930550C14Rik | inactive: -1.74
GGAUAAGGUAAUCUCGGUATT against Olfr710 | inactive: -0.472
GGUCCUUAAUCAUCUGCAUTT against Galr1 | inactive: -0.477
GGAUUAUCAAUGAAUAGCATT against Gabrb2 | inactive: 0.913
GGUUGAAAAUGGAAGAGUATT against Mbnl2 | active: -2.27
GGAAUAGGAUCUAAUCUAATT against Tasp1 | inactive: -0.068
GGACAUGUGCAUGAAGGUUTT against Cryl1 | inactive: 0.541
GGGCGAGGCCAAUUUCUUCTT against Ints11 | inactive: 0.362
GGAAGUUGAAAAUGAAAACTT against Myom2 | inactive: 0.841
GCGAUUGAAGUCUCAGGGATT against Nrde2 | inactive: -1.03

Some values from the entries so far:
For z-score, GGUUGAGCUGAAGAAUGGATT against Htra1 is entered as inactive: 0.332
For z-score, GGAUGUGGCGCAAUAUAUUTT against Gpt is entered as inactive: 1.01

(cont.)

Sequence | z-score
GGCAAGAAUGGGAUAAUACTT against Spice1 | inactive: -1.92
GGCUGUGAUAUUGUUAUUCTT against Dmxl2 | inactive: 0.13
CGGUUCCUCUAACAUGAUATT against Ppp1r2 | inactive: 0.0902
GCUCUGAUAUUCUCAUCAATT against Olfr39 | inactive: 1.25
GGUAGGAAGCUAGAGAAAUTT against Synj2 | inactive: 0.139
CGGUCUUGUGGUCUUUUACTT against Rab7 | inactive: -0.222
GCUCUUGUUAUUUACGUCGTT against Lgi1 | inactive: 0.478
CCAAAUCCGGGAAAAAGAGTT against Armcx5 | inactive: -0.459
GGACCUAUUACCUCAAUGATT against Spatc1l | active: -2.59
GCAAUGGACCAUUUUCUUUTT against Olfr812 | inactive: -0.239
GGCUGAGAACAAUAUGUAUTT against Ccdc80 | inactive: 0.323
GGCACUGAAUGACUUUGUGTT against Pik3cd | inactive: -0.844
GCUGGACCGAAUUGAUUCATT against Egfl7 | inactive: 1.55
CGUCAACCUUUGGUACAAATT against Cabin1 | inactive: -0.294
GUCUUUUUAUGGAUGUAUGTT against Vmn1r38 | inactive: 0.208
UGAAGUGGUGAAUCAGAGUTT against Olfr1167 | inactive: -1.21
GGAGAAAGAGCAGAGUCUGTT against Cep250 | active: -2.04
GCAUAAAGCAAGGUUGAGUTT against Pvr | inactive: -0.949
GGGAACGAGAACCGAUUUGTT against Tfpi | inactive: 0.895
GGACUGCCUUAAUUAAAGUTT against Coa6 | inactive: 1.7
GGGUCUGCUACAUCUUCGGTT against Ino80e | active: 2.27
GGCAGUCUUAUAAUUCAUCTT against Zfp944 | inactive: -1.08

Sequence | z-score
CCUGCACACCAAGUAUCUGTT against Ccl6 | inactive: -0.252
GGUGAAGGCCAUCAAUUUCTT against Gabbr1 | inactive: -0.351
CGCUUACAAGCUAACCUCATT against Mrgprd | inactive: -0.517
GGAGCUGUUCUCAUCCGUUTT against Fam199x | inactive: 0.277
GGACCUCGAGGACUUGUUCTT against Srsf9 | inactive: 0.972
GGAGAAGAGUUUCCUCUGATT against Rtn4ip1 | inactive: -1.25
GAAUGAAAGGUACGAAAAATT against Ang4 | inactive: 0.453
GAAUGUUUACAUGCCACACTT against Ttbk1 | inactive: 0.22
GCGGAAACUCUCGAAAGUGTT against Dhx34 | inactive: -1.52
GGAUCCGAACAUCCUCAGGTT against Hr | active: -2.22
GGUGCACUCUGUCAGUUCATT against Col27a1 | inactive: -0.352
GGACGAACAAUAGAAGAACTT against Agtpbp1 | inactive: 0.813
GGUAACAUCAACACCAAACTT against Nit1 | inactive: -1.6
CCGAGAGCCAAGAUGCCAATT against Armc7 | inactive: -0.178
GGAACAAAGAAGUCAAAGATT against Olfr16 | inactive: -0.765
GGAGAGAAGUUUAUGAAAGTT against Ankk1 | inactive: 0.0135
GGAUUUCAAUAGGCUCUCUTT against Rnf19a | inactive: -1.7
CCUACAGGCGGAGAAACAUTT against Serhl | inactive: -1.28
GGUCCAUGGAAUAGUACGGTT against Gmds | inactive: 0.917
GGGUUGUACUGAAAUAGUGTT against Il1rap | inactive: 0.397
GGGUUUGAAAAUUGUACAATT against Sypl | inactive: 1.49
CCCUUAUAUUUCUAACAGUTT against Chchd2 | inactive: 0.345

Sequence | z-score
GGCACAGUAUGUACUAACUTT against Gpld1 | inactive: -1.81
ACCUGGGCCUAUGCCUUACTT against Ascl2 | inactive: -0.573
GCCUGGAUUUAUCGAAUUATT against 2610524H06Rik | inactive: 0.453
GGCAUUUUAUAAGUUUGAGTT against Mitf | inactive: 0.978
GCUUACCUAGUGCUCUUAATT against Kctd15 | inactive: 0.149
GGUGUUAAGACUAAAACUUTT against Plxdc2 | inactive: -0.995
GUUGGCAUAUUUUAUGGCATT against Olfr1033 | inactive: 1.28
GCUAGACAUCGGUUCUUAUTT against Eomes | inactive: 0.79
GAUACAGAUCGCCAAGAGCTT against H2-D4 | inactive: -0.455
GCUGGAUAUGGUCAAGGCGTT against Ndufa5 | inactive: 0.493
GGUAAGUGAACUAUCUAAGTT against Far2 | inactive: 0.934
GGAACAGAAAGCAGUGUACTT against Dnajc9 | inactive: 1.22
CGGACUUCUCAAGACUUAUTT against Nlrc5 | inactive: -0.897
CCUGCUUAAAGAUUACCCATT against Flt3l | inactive: -1.46
GGGAAGAGCAUGUUUGCUGTT against Surf4 | inactive: 0.982
GGCCUUCAUGGAUUAUACCTT against Serpinb9 | active: 2.09
GCUUCUGACAUAUUGUGCATT against Phxr2 | inactive: -0.488
GCUCUCGGUUCCACUUUCATT against 4932438H23Rik | inactive: -0.212
GGAAAAGAAAAUCAUUGCGTT against Chmp2a | inactive: 0.66
